PubChem BioAssay AID504786, Drosophila RNAi Screening Center | 2011
Purpose: 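Fly genes required for HIF-dependent transcription when hypoxia is mimicked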 (primary screen). Cells: Drosophila S2 cells with a stable HIF luciferase reporter. Reagents: long dsRNA against Drosophila genes, about 0.2 µg dsRNA per well of a 384-well plate. Duration: three days of knock-down, then 20 h of DFO before reading. Treatment: desferrioxamine (DFO) at 100 µM, an iron chelator that mimics hypoxia, for 20 h. Read-out: 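HIF reporter luminescence in cells given 100 µM DFO for 20 h, using the mouse ldh-a hypoxia-response element, scored as per-plate z-scores; higher means greater loss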. Reading the numbers: z-score: higher = stronger loss of HIF reporter signal.
The deposit covers about 21,000 reagents; below is a random part of those that have a named target and a result. 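Primary screen; positive scores mean lost reporter signal, so the sign may be inverted from the usual convention.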 Reagents against one gene are numbered here. A plus sign joins genes that one reagent is predicted to hit. No sequences are given here.

Gene	reagent	z-score, replicate 1	z-score, replicate 2	z-score, replicate 3	z-score, replicate 4
CG10562 (GeneID 43066)	1	-0.3	0.2		
JTBR (GeneID 38235)	1	-0.3	-0.5		
Df31 (GeneID 35418)	1	-0.3	-0.2	-0.9	-0.3
lncRNA:sphinx + ATPsynF	1	2	1.4		
mod(mdg4) + pre-mod(mdg4)-U	1	-0.1	0.1		
CG16868 (GeneID 37298)	1	-0.2	-0.5		
CG14316 (GeneID 42163)	1	-1.1	0		
Oseg5 (GeneID 35349)	1	-0.2	-0.6		
nonA (GeneID 32603)	1	-0.1	0.2		
Frmd5 (GeneID 34398)	1	-0.3	-0.4		
Pldn (GeneID 39315)	1	-0.3	-0.4		
Rgk2 (GeneID 37132)	1	-0.3	-0.2		
Ilp7 (GeneID 31328)	1	-0.3	0		
Cyp305a1 (GeneID 40161)	1	-0.3	-0.4		
CAH5 (GeneID 50102)	1	0	0.1		
CG13901 (GeneID 38095)	1	-0.2	-0.5		
CG7560 (GeneID 39276)	1	-0.2	-0.2		
CG8944 (GeneID 32517)	1	-0.3	-0.5	0	-0.3
Mal-A6 (GeneID 246565)	1	-0.2	-0.1		
CG4213 (GeneID 33209)	1	-0.4	-0.1		
lms (GeneID 37322)	1	-0.3	-0.2		
DhpD (GeneID 40528)	1	-0.3	-0.3		
CG6345 (GeneID 41271)	1	-0.4	-0.4		
ND-B18 (GeneID 32434)	1	0.3	-0.5		
Snap24 (GeneID 41193)	1	-0.2	-0.4		
yellow-g (GeneID 38294)	1	-0.3	-0.7		
Ser (GeneID 43275)	1	-0.3	-0.4		
CG4480 (GeneID 34864)	1	-0.2	-0.4		
CG5882 (GeneID 43269)	1	-0.2	-0.5		
CG13721 (GeneID 38556)	1	-0.2	-0.1		
dwg (GeneID 31265)	1	-0.3	-0.7		
Idh3g (GeneID 43102)	1	0.1	-0.5		
Gel (GeneID 46008)	1	-0.3	-0.1		
CG11458 (GeneID 50110)	1	-0.1	-0.2		
Nep2 (GeneID 40588)	1	-0.2	-0.1		
laza (GeneID 40468)	1	-0.3	-0.3		
CG13994 (GeneID 33853)	1	-0.3	-0.1		
Toll-4 (GeneID 34235)	1	-0.4	-0.2		
CG5421 (GeneID 34661)	1	-0.2	-0.3		
CG13760 (GeneID 31237)	1	-0.2	0.2		
CG5815 (GeneID 43266)	1	-0.3	-0.2		
Or67a (GeneID 39109)	1	-0.3	1.7		
Jupiter (GeneID 41392)	1	0	0.8		
Jupiter (GeneID 41392)	2	-0.4	-0.4		
Jupiter (GeneID 41392)	3	-0.3	-0.1		
CG3625 (GeneID 33198)	1	0	0.5		
CG3625 (GeneID 33198)	2	-0.2	0.5		
CG13531 (GeneID 37627)	1	-0.3	0.1		
sug (GeneID 36424)	1	-0.2	0		
ALiX (GeneID 43330)	1	-0.4	-0.7		
Sap-r (GeneID 43662)	1	-0.3	-0.4	-0.6	0.1
CG3117 (GeneID 33484)	1	-0.1	0.1		
l(1)G0320 (GeneID 326234)	1	-0.2	-0.2		
Usp47 (GeneID 38644)	1	-0.3	-0.2		
Ttc7 (GeneID 48387)	1	0	0		
CG14414 (GeneID 32394)	1	-0.4	-0.8		
sro (GeneID 43512)	1	-0.1	1.4	0.1	0.4
Ugt305A1 (GeneID 59217)	1	-0.3	-0.2		
TotZ (GeneID 117459)	1	0.4	-0.3		
dsf (GeneID 33823)	1	-0.3	0		
CG14785 (GeneID 31094)	1	0.1	-0.4		
Mat1 (GeneID 36130)	1	-0.3	-0.2		
Edg78E (GeneID 40354)	1	-0.3	-0.7		
GILT3 (GeneID 42787)	1	-0.2	0.3		
CG8191 (GeneID 32511)	1	-0.4	0.4		
uno (GeneID 35778)	1	-0.4	-0.4		
CG9447 (GeneID 35597)	1	-0.2	-0.2		
CG34251 (GeneID 5740860)	1	0	-0.3		
CG34251 (GeneID 5740860)	2	0.2	-0.1		
TfIIEalpha (GeneID 39313)	1	0	-0.3		
CG14968 (GeneID 38406)	1	0	0.8		
CG14110 (GeneID 39500)	1	-0.4	-0.2		
CG40583 (retired record) (GeneID 5740259)	1	-0.1	-0.1		
fz2 (GeneID 40090)	1	0.3	0.9		
fz2 (GeneID 40090)	2	-0.4	-0.7	-0.3	-0.1
fz2 (GeneID 40090)	3	-0.3	-0.3		
Rad1 + Sws1	1	0	-0.3		
l(2)k10201 (GeneID 48373)	1	-0.3	-0.4		
l(2)k10201 (GeneID 48373)	2	-0.2	-0.2		
Gem3 (GeneID 39195)	1	-0.2	-0.1		
cindr (GeneID 43654)	1	-0.2	-0.3		
cindr (GeneID 43654)	2	-0.2	-0.4		
CG9399 (GeneID 41157)	1	-0.4	-0.1		

11 entries from above, sorted by “z-score, replicate 2”, descending:
Gene	reagent	z-score, replicate 1	z-score, replicate 2	z-score, replicate 3	z-score, replicate 4
nonA (GeneID 32603)	1	-0.1	0.2		
CAH5 (GeneID 50102)	1	0	0.1		
Ilp7 (GeneID 31328)	1	-0.3	0		
Rgk2 (GeneID 37132)	1	-0.3	-0.2		
CG7560 (GeneID 39276)	1	-0.2	-0.2		
Frmd5 (GeneID 34398)	1	-0.3	-0.4		
Pldn (GeneID 39315)	1	-0.3	-0.4		
Cyp305a1 (GeneID 40161)	1	-0.3	-0.4		
CG13901 (GeneID 38095)	1	-0.2	-0.5		
CG8944 (GeneID 32517)	1	-0.3	-0.5	0	-0.3
Oseg5 (GeneID 35349)	1	-0.2	-0.6		
